Consider 1 substance from US20140220596A1 (MEDICINAL BIOCONVERGENCE RESEARCH CENTER, published 2014).

Chains of the proteins cited; added tags and fusions are not shown. Residues count along the entry.
UniProt P02769, residues 25-607: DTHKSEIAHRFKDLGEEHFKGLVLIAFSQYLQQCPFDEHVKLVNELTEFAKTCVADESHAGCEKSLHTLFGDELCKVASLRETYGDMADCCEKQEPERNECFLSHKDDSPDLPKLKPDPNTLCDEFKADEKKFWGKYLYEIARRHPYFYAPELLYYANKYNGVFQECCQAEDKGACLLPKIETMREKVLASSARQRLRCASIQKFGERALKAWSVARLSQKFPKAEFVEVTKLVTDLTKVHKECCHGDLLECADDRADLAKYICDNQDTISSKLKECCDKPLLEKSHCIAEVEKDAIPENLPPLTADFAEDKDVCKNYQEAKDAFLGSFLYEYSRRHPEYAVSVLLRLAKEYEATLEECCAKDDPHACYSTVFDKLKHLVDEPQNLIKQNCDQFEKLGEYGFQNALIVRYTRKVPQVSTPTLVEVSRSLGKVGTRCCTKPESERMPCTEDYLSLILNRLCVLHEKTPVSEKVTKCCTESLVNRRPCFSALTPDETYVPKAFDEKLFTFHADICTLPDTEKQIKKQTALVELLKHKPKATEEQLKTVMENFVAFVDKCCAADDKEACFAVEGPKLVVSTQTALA

The assay concerns the target T1, Fc-fused soluble cadherin-6 (extracellular domain of CDH6 fused to the Fc fragment of human IgG1) (human) (UniProt P55285).
T1 sequence: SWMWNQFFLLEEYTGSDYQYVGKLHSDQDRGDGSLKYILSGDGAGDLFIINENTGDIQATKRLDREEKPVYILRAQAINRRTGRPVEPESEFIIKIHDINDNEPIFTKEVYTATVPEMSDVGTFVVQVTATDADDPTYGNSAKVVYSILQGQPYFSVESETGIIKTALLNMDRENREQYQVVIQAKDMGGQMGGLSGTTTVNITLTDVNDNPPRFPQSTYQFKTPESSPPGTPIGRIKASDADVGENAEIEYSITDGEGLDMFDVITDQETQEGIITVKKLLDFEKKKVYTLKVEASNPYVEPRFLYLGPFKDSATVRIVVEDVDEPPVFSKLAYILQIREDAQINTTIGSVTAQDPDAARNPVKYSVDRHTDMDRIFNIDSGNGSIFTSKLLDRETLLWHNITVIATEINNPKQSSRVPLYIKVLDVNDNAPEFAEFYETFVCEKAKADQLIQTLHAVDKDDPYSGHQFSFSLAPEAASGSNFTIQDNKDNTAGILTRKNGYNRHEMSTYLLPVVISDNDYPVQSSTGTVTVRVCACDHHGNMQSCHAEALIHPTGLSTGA
Kind of assay: ELISA of GST-fused GRS proteins with CDH6 (format not described further), normalized OD value.

Results are given in words; binding and its absence hold for the method and conditions named. Where a sequence is shown, tags or fusion partners need not be part of it.

As to BSA (from UniProt P02769), the binding result is “no binding”.
